Some of the results follow. Residues, ends and D or L forms follow the SMILES beside them. *: point of attachment. Cbz = O=C(OCc1ccccc1)*
Tests used:
Test in all cases: log2 fold change, soluble protein after heating vs DMSO (PISA); higher = thermal stabilisation; K562 cells, 10 uM, 30 min; active = over 0.2 and 3.5 SD of the protein, either way, in both replicates (recomputed)
[1] = compound: C1COCCN1CCN2C3=CC=CC=C3N=C2NC(=O)C4=CC(=CC=C4)[N+](=O)[O-] [IRAK-1-4 Inhibitor I]
How it was run: (§1)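 Soluble protein was quantified by TMTpro 16plex LC-MS/MS after channel sums were equalised. It was obtained as the supernatant after 21,000xg for 90 min from pooled aliquots of K562 cells (2×10^6 cells/mL, 10 μM compound, 30 min) heated for 3 min across 48°C-58°C and extracted in PBS with 0.5% NP-40 at 4°C. Thermal stability values are relative to control samples and come from duplicates. They are given as log2 fold changes.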

Amino acid sequences for entries named in this document (tags omitted). A change or cut given only in a name is not applied to a line headed by its entry.
UniProt P49902: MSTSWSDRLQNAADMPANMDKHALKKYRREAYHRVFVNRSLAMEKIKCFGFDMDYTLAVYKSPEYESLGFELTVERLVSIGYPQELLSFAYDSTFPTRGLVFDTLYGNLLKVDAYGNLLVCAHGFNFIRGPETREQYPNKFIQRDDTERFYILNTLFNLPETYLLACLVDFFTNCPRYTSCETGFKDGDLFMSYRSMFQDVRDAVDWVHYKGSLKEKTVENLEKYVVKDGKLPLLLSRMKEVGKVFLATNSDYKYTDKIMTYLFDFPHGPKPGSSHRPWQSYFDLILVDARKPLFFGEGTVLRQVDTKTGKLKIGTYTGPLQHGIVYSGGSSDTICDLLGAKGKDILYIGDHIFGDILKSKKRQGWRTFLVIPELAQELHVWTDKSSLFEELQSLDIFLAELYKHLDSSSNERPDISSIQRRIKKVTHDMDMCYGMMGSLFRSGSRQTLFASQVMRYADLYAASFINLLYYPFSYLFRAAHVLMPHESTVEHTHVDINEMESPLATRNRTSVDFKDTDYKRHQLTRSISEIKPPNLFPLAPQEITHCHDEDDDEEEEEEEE
UniProt Q02218: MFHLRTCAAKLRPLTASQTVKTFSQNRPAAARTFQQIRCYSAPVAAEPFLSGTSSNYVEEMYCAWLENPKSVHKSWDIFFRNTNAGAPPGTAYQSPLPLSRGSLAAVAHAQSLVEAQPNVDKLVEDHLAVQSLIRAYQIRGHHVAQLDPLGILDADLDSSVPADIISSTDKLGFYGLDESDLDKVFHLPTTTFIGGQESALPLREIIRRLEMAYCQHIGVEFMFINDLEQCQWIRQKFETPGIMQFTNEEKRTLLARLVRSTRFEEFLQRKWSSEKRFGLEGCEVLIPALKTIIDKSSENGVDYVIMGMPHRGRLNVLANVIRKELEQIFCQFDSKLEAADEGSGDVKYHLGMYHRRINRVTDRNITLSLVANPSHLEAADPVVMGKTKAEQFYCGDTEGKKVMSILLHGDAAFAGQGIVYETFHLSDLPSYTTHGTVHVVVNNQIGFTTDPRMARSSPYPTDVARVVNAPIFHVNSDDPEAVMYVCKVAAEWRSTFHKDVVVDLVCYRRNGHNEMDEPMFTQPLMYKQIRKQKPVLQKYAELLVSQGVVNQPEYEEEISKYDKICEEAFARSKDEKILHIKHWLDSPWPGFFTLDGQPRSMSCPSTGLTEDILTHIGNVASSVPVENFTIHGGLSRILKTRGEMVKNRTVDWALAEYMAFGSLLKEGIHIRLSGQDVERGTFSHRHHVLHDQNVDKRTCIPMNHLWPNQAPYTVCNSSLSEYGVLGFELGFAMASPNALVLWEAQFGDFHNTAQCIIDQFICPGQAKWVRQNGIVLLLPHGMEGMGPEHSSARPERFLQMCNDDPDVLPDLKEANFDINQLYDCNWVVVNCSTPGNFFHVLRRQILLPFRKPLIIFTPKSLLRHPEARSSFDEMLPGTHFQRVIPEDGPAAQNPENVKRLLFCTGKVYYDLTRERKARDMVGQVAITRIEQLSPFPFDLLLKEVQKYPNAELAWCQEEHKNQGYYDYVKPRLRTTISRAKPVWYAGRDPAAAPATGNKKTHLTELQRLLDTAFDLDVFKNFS
UniProt Q96E52: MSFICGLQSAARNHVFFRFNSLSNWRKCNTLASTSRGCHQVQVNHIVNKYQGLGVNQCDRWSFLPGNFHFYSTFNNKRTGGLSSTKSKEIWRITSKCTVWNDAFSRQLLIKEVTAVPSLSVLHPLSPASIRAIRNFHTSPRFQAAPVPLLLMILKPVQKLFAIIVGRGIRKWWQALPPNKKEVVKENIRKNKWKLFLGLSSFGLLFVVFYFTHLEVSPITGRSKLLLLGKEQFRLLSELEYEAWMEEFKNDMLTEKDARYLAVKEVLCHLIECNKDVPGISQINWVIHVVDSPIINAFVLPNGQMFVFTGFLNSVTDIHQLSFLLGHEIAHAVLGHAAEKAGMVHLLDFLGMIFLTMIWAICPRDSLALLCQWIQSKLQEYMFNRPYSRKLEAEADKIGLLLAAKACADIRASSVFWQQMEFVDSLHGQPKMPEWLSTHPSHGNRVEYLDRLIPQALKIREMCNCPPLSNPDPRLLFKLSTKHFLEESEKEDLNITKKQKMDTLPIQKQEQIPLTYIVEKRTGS
UniProt P37198: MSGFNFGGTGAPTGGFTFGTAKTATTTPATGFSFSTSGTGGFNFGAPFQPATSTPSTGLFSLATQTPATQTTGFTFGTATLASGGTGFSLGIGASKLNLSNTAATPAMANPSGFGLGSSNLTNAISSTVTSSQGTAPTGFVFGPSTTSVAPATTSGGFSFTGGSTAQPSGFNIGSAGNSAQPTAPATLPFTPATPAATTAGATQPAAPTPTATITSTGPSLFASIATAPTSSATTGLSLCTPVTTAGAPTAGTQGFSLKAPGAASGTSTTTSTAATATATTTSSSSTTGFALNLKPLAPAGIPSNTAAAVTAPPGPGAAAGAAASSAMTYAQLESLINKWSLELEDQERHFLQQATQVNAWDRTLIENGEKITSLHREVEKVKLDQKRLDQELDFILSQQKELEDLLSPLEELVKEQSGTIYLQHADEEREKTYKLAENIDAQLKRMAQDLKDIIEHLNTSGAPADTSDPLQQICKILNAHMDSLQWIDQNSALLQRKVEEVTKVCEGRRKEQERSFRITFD
UniProt Q9BRJ7: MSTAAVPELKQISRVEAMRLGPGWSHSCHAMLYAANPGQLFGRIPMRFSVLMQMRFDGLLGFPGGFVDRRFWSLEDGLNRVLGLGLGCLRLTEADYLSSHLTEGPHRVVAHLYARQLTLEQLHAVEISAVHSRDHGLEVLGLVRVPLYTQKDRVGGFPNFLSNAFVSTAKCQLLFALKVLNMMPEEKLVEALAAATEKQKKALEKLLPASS
UniProt P35658: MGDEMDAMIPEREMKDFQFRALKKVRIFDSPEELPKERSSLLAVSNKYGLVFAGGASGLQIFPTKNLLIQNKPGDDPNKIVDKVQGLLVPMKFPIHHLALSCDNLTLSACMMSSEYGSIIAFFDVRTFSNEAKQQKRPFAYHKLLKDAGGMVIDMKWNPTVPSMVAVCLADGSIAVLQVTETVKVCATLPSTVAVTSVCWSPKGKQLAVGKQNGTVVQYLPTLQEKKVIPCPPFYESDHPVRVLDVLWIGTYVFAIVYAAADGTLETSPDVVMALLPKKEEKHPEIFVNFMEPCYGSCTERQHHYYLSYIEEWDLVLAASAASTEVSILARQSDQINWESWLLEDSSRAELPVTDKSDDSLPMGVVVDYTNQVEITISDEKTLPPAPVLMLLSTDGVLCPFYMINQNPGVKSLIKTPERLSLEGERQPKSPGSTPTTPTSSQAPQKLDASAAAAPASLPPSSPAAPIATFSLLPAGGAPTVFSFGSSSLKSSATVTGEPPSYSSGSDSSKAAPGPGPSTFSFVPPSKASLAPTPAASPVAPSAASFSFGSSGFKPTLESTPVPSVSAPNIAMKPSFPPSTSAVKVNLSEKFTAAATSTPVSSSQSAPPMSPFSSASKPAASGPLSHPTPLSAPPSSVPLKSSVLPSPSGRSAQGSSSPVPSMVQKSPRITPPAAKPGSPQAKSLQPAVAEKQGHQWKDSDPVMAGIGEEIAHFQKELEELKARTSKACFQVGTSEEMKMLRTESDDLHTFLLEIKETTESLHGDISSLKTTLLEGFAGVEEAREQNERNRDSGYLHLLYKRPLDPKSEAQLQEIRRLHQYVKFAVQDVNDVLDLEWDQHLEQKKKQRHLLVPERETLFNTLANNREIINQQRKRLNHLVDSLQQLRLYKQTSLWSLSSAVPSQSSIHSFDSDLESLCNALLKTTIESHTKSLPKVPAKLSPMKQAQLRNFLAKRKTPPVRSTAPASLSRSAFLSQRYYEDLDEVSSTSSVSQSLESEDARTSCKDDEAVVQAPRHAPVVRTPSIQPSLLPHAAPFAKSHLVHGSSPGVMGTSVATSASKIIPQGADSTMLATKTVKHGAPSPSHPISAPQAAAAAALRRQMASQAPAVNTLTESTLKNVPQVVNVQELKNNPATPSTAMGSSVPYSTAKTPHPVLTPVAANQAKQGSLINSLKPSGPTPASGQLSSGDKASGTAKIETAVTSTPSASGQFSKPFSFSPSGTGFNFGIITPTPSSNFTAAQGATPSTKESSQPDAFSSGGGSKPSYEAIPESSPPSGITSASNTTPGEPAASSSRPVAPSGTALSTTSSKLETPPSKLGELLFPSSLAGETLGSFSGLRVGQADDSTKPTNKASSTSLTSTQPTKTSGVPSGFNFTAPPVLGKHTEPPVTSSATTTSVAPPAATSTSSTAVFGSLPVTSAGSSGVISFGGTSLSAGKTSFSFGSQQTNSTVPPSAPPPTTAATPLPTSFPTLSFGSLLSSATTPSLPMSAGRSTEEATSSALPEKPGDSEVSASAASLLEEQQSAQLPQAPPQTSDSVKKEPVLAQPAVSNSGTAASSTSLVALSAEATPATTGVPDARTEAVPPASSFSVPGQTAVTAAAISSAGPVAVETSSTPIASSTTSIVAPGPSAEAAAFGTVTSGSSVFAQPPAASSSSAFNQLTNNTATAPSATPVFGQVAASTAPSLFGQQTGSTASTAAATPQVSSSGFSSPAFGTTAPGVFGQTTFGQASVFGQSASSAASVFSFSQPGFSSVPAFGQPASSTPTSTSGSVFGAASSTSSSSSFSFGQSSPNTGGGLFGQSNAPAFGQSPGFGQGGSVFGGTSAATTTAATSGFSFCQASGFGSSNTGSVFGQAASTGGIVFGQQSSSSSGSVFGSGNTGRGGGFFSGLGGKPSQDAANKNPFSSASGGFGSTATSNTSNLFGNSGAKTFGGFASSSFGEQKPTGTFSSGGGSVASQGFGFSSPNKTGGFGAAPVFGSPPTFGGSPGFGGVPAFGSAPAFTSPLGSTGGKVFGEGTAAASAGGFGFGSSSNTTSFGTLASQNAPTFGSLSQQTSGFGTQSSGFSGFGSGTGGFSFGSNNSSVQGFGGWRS
UniProt Q9NZJ9: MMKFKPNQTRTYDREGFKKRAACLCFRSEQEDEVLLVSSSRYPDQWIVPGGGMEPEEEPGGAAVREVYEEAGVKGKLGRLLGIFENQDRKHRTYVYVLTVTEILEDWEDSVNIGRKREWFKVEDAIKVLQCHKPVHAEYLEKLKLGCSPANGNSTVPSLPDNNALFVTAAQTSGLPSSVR
UniProt Q8WUM0: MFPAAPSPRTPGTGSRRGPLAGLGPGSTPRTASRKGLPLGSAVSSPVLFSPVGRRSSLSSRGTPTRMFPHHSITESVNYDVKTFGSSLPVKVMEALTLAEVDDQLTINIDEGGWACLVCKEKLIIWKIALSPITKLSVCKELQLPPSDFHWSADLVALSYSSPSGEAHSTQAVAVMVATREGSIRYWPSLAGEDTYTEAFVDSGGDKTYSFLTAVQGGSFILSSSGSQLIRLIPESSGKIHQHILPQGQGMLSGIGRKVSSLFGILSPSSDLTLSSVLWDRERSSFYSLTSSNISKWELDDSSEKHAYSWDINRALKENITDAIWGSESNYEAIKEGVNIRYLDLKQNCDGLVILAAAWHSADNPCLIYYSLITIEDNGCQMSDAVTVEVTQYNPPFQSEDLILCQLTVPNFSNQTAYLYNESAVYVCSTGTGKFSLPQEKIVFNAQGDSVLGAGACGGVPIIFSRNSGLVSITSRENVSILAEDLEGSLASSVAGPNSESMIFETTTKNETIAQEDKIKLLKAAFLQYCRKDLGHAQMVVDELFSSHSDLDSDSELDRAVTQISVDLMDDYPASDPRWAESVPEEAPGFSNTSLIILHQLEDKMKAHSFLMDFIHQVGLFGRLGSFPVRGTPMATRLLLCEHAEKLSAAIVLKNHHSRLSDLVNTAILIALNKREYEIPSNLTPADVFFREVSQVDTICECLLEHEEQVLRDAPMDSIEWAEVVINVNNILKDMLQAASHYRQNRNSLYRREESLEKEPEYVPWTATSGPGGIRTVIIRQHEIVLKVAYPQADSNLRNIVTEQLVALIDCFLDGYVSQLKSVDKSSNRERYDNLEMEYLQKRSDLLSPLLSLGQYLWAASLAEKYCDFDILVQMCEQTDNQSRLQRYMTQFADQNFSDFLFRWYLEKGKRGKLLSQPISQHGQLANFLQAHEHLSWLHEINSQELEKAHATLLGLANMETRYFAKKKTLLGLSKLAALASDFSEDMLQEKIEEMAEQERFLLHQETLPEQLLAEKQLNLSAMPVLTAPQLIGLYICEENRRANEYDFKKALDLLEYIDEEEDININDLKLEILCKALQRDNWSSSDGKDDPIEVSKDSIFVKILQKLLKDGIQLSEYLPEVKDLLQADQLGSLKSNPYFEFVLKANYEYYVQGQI
UniProt Q8NFH4: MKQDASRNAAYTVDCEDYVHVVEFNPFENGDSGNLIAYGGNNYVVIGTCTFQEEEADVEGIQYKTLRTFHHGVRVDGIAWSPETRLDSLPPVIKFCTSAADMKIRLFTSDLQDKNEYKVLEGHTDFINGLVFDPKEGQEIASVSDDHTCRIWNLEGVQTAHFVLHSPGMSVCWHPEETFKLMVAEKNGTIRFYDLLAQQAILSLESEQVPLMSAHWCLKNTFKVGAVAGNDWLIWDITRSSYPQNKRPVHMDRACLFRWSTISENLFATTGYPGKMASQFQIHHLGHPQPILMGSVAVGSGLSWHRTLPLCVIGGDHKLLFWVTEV

[2] = compound: C=CC(=O)N1CCC[C@@H](n2nc(-c3ccc(Oc4ccccc4)cc3)c3c(N)ncnc32)C1 [ibrutinib]
How it was run: as §1

[3] = compound: CC(=O)c1cnc2ccc(-c3cc(Cl)c(O)c(Cl)c3)nc2c1N[C@H]1CC[C@H](CN(C)C)CC1
How it was run: as §1

[4] = compound: CC(C)(C)Cn1c(N)nc2ccc(-c3[nH]c(C(C)(C)C)nc3-c3ccc(F)cc3)nc21 [ralimetinib]
How it was run: as §1

[5] = compound: CC(C)(O)CC(=O)NCCn1ccc2ncnc(Nc3ccc(Oc4cccc(C(F)(F)F)c4)c(Cl)c3)c21
How it was run: as §1

[6] = compound: CC(C)C1=C2N=C(C=C(N2N=C1)NCC3=CC=CC=C3)NCCCCCCN
How it was run: as §1

[7] = compound: CC(C)C[C@@H](C=O)NC(=O)[C@H](CC(C)C)NC(=O)[C@H](CC(C)C)NC(=O)OCc1ccccc1
How it was run: as §1

[8] = compound: CC(C)N(C[C@H]1O[C@@H](n2cnc3c(N)ncnc32)[C@H](O)[C@@H]1O)[C@H]1C[C@@H](CCc2nc3cc(C(C)(C)C)ccc3[nH]2)C1 [pinometostat]
How it was run: as §1

[9] = compound: CC1=C(C(CC(=O)N1)C2=CC=C(C=C2)C(F)(F)F)C(=O)NC3=C(C=C4C(=C3)C=NN4)F
How it was run: as §1

[10] = compound: CC1=C(C2=C(C=C1)C(=O)C3=CC=CC=C3N2CCCN)C
How it was run: as §1

[11] = compound: CC1=C(C=C(C=C1)NC(=O)C2=CC(=CC=C2)C(C)(C)C#N)NC3=CC4=C(C=C3)N=CN(C4=O)C
How it was run: as §1

[12] = compound: CC1=C(C=C(C=C1)NC(=O)C2=CC(=CC=C2)N(C)C)NC(=O)C3=CC=C(C=C3)O
How it was run: as §1

[13] = compound: CC1=CC=C(C=C1)SC2=C3C=C(SC3=CN=C2)C(=O)N
How it was run: as §1

[14] = compound: CC1=NC(=CC=C1)C2=C(N=C(N2)C(C)(C)C)C3=CC4=NC=CN=C4C=C3
How it was run: as §1

[15] = compound: CCCCN(Cc1ccc(C(=O)NO)cc1)C(=O)Nc1ccccc1 [Nexturastat A]
How it was run: as §1

[16] = compound: CCCS(=O)(=O)Nc1ccc(F)c(C(=O)c2c[nH]c3ncc(-c4ccc(Cl)cc4)cc23)c1F [vemurafenib]
How it was run: as §1

[17] = compound: CCCS(=O)(=O)Nc1ccc(F)c(C(=O)c2c[nH]c3ncc(Cl)cc23)c1F
How it was run: as §1

[18] = compound: CCCc1cc(C)[nH]c(=O)c1CNC(=O)c1cc(-c2ccnc(N3CCN(C)CC3)c2)cc2c1cnn2C(C)C
How it was run: as §1

[19] = compound: CCN(CC)Cc1ccc2cc(COC(=O)Nc3ccc(C(=O)NO)cc3)ccc2c1 [givinostat]
How it was run: as §1

[20] = compound: CCN(CCCOc1ccc2c(Nc3cc(CC(=O)Nc4cccc(F)c4)[nH]n3)ncnc2c1)CCOP(=O)(O)O [barasertib]
How it was run: as §1

Measured: log2 fold change

P2RX4 isoform 2 (UniProt Q99571)
inactive: [1] -0.055 | [2] 0.056 | [3] -0.02 | [4] -0.035 | [5] 0.022 | [6] 0.012 | [7] 0.111 | [8] -0.069 | [9] -0.141 | [10] -0.171 | [11] -0.095 | [12] -0.042 | [13] 0.038 | [14] 0.039 | [15] 0.009 | [16] -0.001 | [17] -0.224 | [18] -0.11 | [19] -0.003 | [20] 0.066

NUFIP2 (UniProt Q7Z417)
inactive: [1] -0.028 | [2] 0.022 | [3] 0.037 | [4] 0.096 | [5] 0.049 | [6] -0.025 | [7] 0.003 | [8] 0.116 | [9] 0.003 | [10] 0.017 | [11] 0.019 | [12] 0.026 | [13] -0.052 | [14] -0.007 | [15] 0.163 | [16] -0.022 | [17] -0.023 | [18] 0.104 | [19] 0.035 | [20] -0.043

NT5C2 (UniProt P49902)
inactive: [1] 0.012 | [2] -0.003 | [3] 0.007 | [4] -0.061 | [5] 0.007 | [6] 0.083 | [7] -0.042 | [8] -0.066 | [9] -0.051 | [10] 0.061 | [11] -0.025 | [12] -0.002 | [13] 0.01 | [14] -0.028 | [15] -0.026 | [16] -0.031 | [17] -0.016 | [18] 0.02 | [19] -0.018 | [20] -0.008

Quoted from the results shown (2 entries):
NUFIP2 (UniProt Q7Z417)
inactive: [1] -0.028 | [2] 0.022 | [3] 0.037 | [4] 0.096 | [5] 0.049 | [6] -0.025 | [7] 0.003 | [8] 0.116 | [9] 0.003 | [10] 0.017 | [11] 0.019 | [12] 0.026 | [13] -0.052 | [14] -0.007 | [15] 0.163 | [16] -0.022 | [17] -0.023 | [18] 0.104 | [19] 0.035 | [20] -0.043

NT5C2 (UniProt P49902)
inactive: [1] 0.012 | [2] -0.003 | [3] 0.007 | [4] -0.061 | [5] 0.007 | [6] 0.083 | [7] -0.042 | [8] -0.066 | [9] -0.051 | [10] 0.061 | [11] -0.025 | [12] -0.002 | [13] 0.01 | [14] -0.028 | [15] -0.026 | [16] -0.031 | [17] -0.016 | [18] 0.02 | [19] -0.018 | [20] -0.008

(list continues)

OGDH (UniProt Q02218)
inactive: [1] -0.06 | [2] 0.051 | [3] 0.03 | [4] 0.032 | [5] -0.054 | [6] 0.041 | [7] 0.016 | [8] 0.032 | [9] -0.059 | [10] 0.127 | [11] 0.107 | [12] -0.082 | [13] -0.015 | [14] -0.022 | [15] 0.044 | [16] -0.055 | [17] 0.018 | [18] 0.034 | [19] 0.021 | [20] -0.033

NUCB2 (UniProt P80303)
inactive: [1] 0.028 | [2] -0.014 | [3] -0.004 | [4] -0.029 | [5] 0.034 | [6] 0.067 | [7] -0.004 | [8] -0.048 | [9] -0.023 | [10] -0.002 | [11] 0.021 | [12] 0.004 | [13] 0.012 | [14] -0.004 | [15] -0.058 | [16] -0.019 | [17] -0.038 | [18] -0.066 | [19] -0.025 | [20] -0.014

NUP88 (UniProt Q99567)
inactive: [1] -0.013 | [2] -0.089 | [3] -0.004 | [4] 0.087 | [5] -0.031 | [6] -0.117 | [7] 0.013 | [8] 0.16 | [9] 0.03 | [10] 0.028 | [11] -0.056 | [12] -0.027 | [13] 0.015 | [14] -0.043 | [15] 0.136 | [16] 0.022 | [17] 0.071 | [18] 0.033 | [19] 0.092 | [20] 0.012

OMA1 (UniProt Q96E52)
inactive: [1] 0.002 | [2] -0.037 | [3] 0.017 | [4] 0.01 | [5] 0.006 | [6] -0.023 | [7] -0.169 | [8] -0.02 | [9] 0.094 | [10] -0.007 | [11] -0.017 | [12] -0.023 | [13] 0.016 | [14] -0.018 | [15] -0.059 | [16] 0.014 | [17] -0.001 | [18] -0.039 | [19] 0.013 | [20] -0.013

NUP62 (UniProt P37198)
inactive: [1] -0.022 | [2] -0.03 | [3] -0.029 | [4] 0.026 | [5] 0.03 | [6] -0.04 | [7] 0.009 | [8] 0.012 | [9] -0.052 | [10] 0.033 | [11] -0.011 | [12] 0.001 | [13] 0.022 | [14] 0.038 | [15] 0.047 | [16] -0.002 | [17] 0.048 | [18] 0.003 | [19] 0.044 | [20] 0.07

NSUN5 isoform 2 (UniProt Q96P11)
inactive: [1] 0.088 | [2] 0.027 | [3] 0.018 | [4] 0.055 | [5] -0.031 | [6] 0.013 | [7] 0.013 | [8] 0.108 | [9] 0.096 | [10] -0.078 | [11] 0.038 | [12] 0.003 | [13] -0.039 | [14] -0.045 | [15] 0.007 | [16] -0.042 | [17] 0.073 | [18] 0.048 | [19] 0.008 | [20] -0.009

NUDT16L1 (UniProt Q9BRJ7)
inactive: [1] 0.003 | [2] 0.039 | [3] -0.004 | [4] 0.037 | [5] -0.037 | [6] 0.026 | [7] -0.022 | [8] -0.059 | [9] 0.049 | [10] 0.156 | [11] -0.02 | [12] -0.012 | [13] 0 | [14] 0.048 | [15] -0.116 | [16] 0.001 | [17] -0.008 | [18] -0.051 | [19] -0.058 | [20] 0

NUP214 isoform 5 (UniProt P35658)
inactive: [1] -0.044 | [2] -0.05 | [3] -0.023 | [4] 0.147 | [5] 0 | [6] -0.159 | [7] 0.131 | [8] 0.262 | [9] -0.029 | [10] 0.024 | [11] -0.064 | [12] 0.035 | [13] -0.049 | [14] -0.027 | [15] 0.242 | [16] 0.042 | [17] 0.024 | [18] 0.05 | [19] 0.096 | [20] 0.06

NUDT9 (UniProt Q9BW91)
inactive: [1] 0.027 | [2] -0.037 | [3] -0.032 | [4] -0.021 | [5] 0 | [6] -0.002 | [7] 0.054 | [8] -0.043 | [9] -0.021 | [10] -0.018 | [11] -0.012 | [12] -0.074 | [13] 0.006 | [14] 0.046 | [15] -0.07 | [16] 0.056 | [17] 0.021 | [18] -0.008 | [19] -0.094 | [20] 0.029

NSRP1 (UniProt Q9H0G5)
inactive: [1] -0.094 | [2] 0.021 | [3] -0.092 | [4] 0.056 | [5] 0.064 | [6] 0.006 | [7] 0.149 | [8] 0.129 | [9] 0.026 | [10] 0.157 | [11] -0.028 | [12] 0.016 | [13] -0.028 | [14] -0.057 | [15] 0.222 | [16] 0.001 | [17] 0.009 | [18] 0.031 | [19] 0.002 | [20] -0.007

NUDT4 (UniProt Q9NZJ9)
inactive: [1] -0.029 | [2] 0.032 | [3] 0.019 | [4] -0.005 | [5] -0.057 | [6] -0.178 | [7] 0.046 | [8] -0.005 | [9] -0.017 | [10] -0.095 | [11] 0.047 | [12] -0.048 | [13] -0.018 | [14] 0.018 | [15] -0.01 | [16] 0.017 | [17] 0.034 | [18] 0.004 | [19] 0.064 | [20] 0.042

NUP133 (UniProt Q8WUM0)
inactive: [1] -0.106 | [2] -0.048 | [3] -0.093 | [4] 0.114 | [5] 0.052 | [6] -0.037 | [7] 0.053 | [8] 0.094 | [9] -0.044 | [10] -0.016 | [11] 0.003 | [12] 0.087 | [13] 0.013 | [14] 0.06 | [15] 0.137 | [16] 0.014 | [17] 0.006 | [18] 0.091 | [19] 0.026 | [20] 0.09

NUP37 (UniProt Q8NFH4)
inactive: [1] -0.011 | [2] -0.012 | [3] -0.006 | [4] -0.089 | [5] -0.049 | [6] -0.02 | [7] -0.045 | [8] -0.046 | [9] 0.064 | [10] -0.06 | [11] 0.022 | [12] -0.006 | [13] -0.013 | [14] 0.048 | [15] -0.066 | [16] 0.017 | [17] 0.041 | [18] -0.038 | [19] 0.011 | [20] 0.023

From the supplement of paper PMC10849652
